PubChem BioAssay AID1224830 | NIAID – 2016

Assay: 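Genes whose knock-down alters the TNF-alpha reporter response to LPS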 (primary screen)
Cells: human THP-1 monocytic leukaemia cells, TNF dual-luciferase reporter clone, PMA-differentiated to macrophage-like cells
Knock-down reagent: siRNA pool against human genes, 50 nM
Time to read-out: LPS for 4 h, given about 3 days after siRNA transfection
Challenge: bacterial LPS (TLR4 ligand), 10 ng/ml
Detection: 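Ratio of firefly to renilla light, scaled to the plate median and expressed as a robust z-score per replicate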
Scale: TNF reporter robust z-score: higher = stronger TNF reporter response to LPS
Call rule: 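Each well counts as active if its z-score is over 2.8 or under -1.5; controls are left without a call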
The deposit covers about 18,000 reagents; this is an unselected part. About 2,900 of all reagents (16%) were called active. 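Calls are made per well; low scores hint the gene aids the LPS response, high scores that it dampens it.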 Entries without a mark were called inactive. Repeated entries: four replicate wells of each siRNA pool. No sequences are given here.

Depletion of HYDIN (HYDIN axonemal central pair apparatus protein) gave: TNF reporter robust z-score 0.38. For HYDIN (HYDIN axonemal central pair apparatus protein), the values are TNF reporter robust z-score 0.99. For HYDIN (HYDIN axonemal central pair apparatus protein) the deposit lists TNF reporter robust z-score 0.32. HYDIN (HYDIN axonemal central pair apparatus protein) showed TNF reporter robust z-score 0.18. With knock-down of RAB31 (RAB31, member RAS oncogene family), the record shows TNF reporter robust z-score 1.13. Against RAB31 (RAB31, member RAS oncogene family), the values are TNF reporter robust z-score 1.76.

Silencing of RAB31 (RAB31, member RAS oncogene family) came out at: TNF reporter robust z-score 1.91. Against RAB31 (RAB31, member RAS oncogene family), the values are TNF reporter robust z-score -0.38. Depletion of TSPAN33 (tetraspanin 33) came out at: TNF reporter robust z-score -0.06. TSPAN33 (tetraspanin 33) gave TNF reporter robust z-score -1.19. For TSPAN33 (tetraspanin 33), the values are TNF reporter robust z-score -0.56. TSPAN33 (tetraspanin 33) scored TNF reporter robust z-score 0.72.

Silencing of ATF7 (activating transcription factor 7) came out at: TNF reporter robust z-score -2.36 (active). ATF7 (activating transcription factor 7) showed TNF reporter robust z-score -2.23 (active). Silencing of ATF7 (activating transcription factor 7) came out at: TNF reporter robust z-score -2.33 (active). Against ATF7 (activating transcription factor 7), the entry reads TNF reporter robust z-score -1.97 (active). C2orf78 (chromosome 2 open reading frame 78) scored TNF reporter robust z-score -0.9. C2orf78 (chromosome 2 open reading frame 78) scored TNF reporter robust z-score -0.16.

After knock-down of C2orf78 (chromosome 2 open reading frame 78), the record shows TNF reporter robust z-score 0.73. Depletion of C2orf78 (chromosome 2 open reading frame 78) gave: TNF reporter robust z-score 1.5. For FBXO27 (F-box protein 27), the entry reads TNF reporter robust z-score 0.5. Knock-down of FBXO27 (F-box protein 27) resulted in: TNF reporter robust z-score 1.7. FBXO27 (F-box protein 27) gave TNF reporter robust z-score -1.01. For FBXO27 (F-box protein 27) the deposit lists TNF reporter robust z-score -0.51.

Knock-down of EYA3 (EYA transcriptional coactivator and phosphatase 3) resulted in: TNF reporter robust z-score 0.15. Against EYA3 (EYA transcriptional coactivator and phosphatase 3) the deposit lists TNF reporter robust z-score 0.43. For EYA3 (EYA transcriptional coactivator and phosphatase 3) the deposit lists TNF reporter robust z-score -0.41. With knock-down of EYA3 (EYA transcriptional coactivator and phosphatase 3), the screen gave TNF reporter robust z-score 0.53.

Targets above whose gene name begins with F or f:
FBXO27 (F-box protein 27): TNF reporter robust z-score = 0.5
FBXO27 (F-box protein 27): TNF reporter robust z-score = 1.7
FBXO27 (F-box protein 27): TNF reporter robust z-score = -1.01
FBXO27 (F-box protein 27): TNF reporter robust z-score = -0.51

The results go on:
After knock-down of POLR2J (RNA polymerase II subunit J), the screen gave TNF reporter robust z-score -1.56 (active). POLR2J (RNA polymerase II subunit J) scored TNF reporter robust z-score -1.23. Against POLR2J (RNA polymerase II subunit J), the entry reads TNF reporter robust z-score -1.91 (active). POLR2J (RNA polymerase II subunit J) gave TNF reporter robust z-score -1. TYW3 (tRNA-yW synthesizing protein 3 homolog) scored TNF reporter robust z-score -0.39. Silencing of TYW3 (tRNA-yW synthesizing protein 3 homolog) came out at: TNF reporter robust z-score -0.82.

TYW3 (tRNA-yW synthesizing protein 3 homolog) gave TNF reporter robust z-score -1.02. TYW3 (tRNA-yW synthesizing protein 3 homolog) gave TNF reporter robust z-score -0.54. GMIP (GEM interacting protein) showed TNF reporter robust z-score -0.88. Against GMIP (GEM interacting protein), the entry reads TNF reporter robust z-score -0.23. Knock-down of GMIP (GEM interacting protein) resulted in: TNF reporter robust z-score -0.81. After knock-down of GMIP (GEM interacting protein) the results were TNF reporter robust z-score -1.09.

PKIB (cAMP-dependent protein kinase inhibitor beta) scored TNF reporter robust z-score 0.91. Knock-down of PKIB (cAMP-dependent protein kinase inhibitor beta) resulted in: TNF reporter robust z-score 1.7. After knock-down of PKIB (cAMP-dependent protein kinase inhibitor beta), the record shows TNF reporter robust z-score 1.4. Against PKIB (cAMP-dependent protein kinase inhibitor beta), the values are TNF reporter robust z-score 1.13. Depletion of PRDX5 (peroxiredoxin 5) came out at: TNF reporter robust z-score -0.63. Silencing of PRDX5 (peroxiredoxin 5) gave: TNF reporter robust z-score 0.06.

With knock-down of PRDX5 (peroxiredoxin 5), the screen gave TNF reporter robust z-score -0.78. PRDX5 (peroxiredoxin 5) gave TNF reporter robust z-score 0.76.
